Earlier results as cited in patent publication US20040014215A1, “Synchronised arabidopsis cell suspensions and uses thereof” (priority 2000, published 2004).
At least one structure is not confirmed: it was looked up by name or label, or the drawing left a doubt.

System: cell cycle
Details: phase of the cell cycle at which cells are arrested; cited from earlier work

Row | SMILES | cell cycle arrest
1 | Cn1cnc2c(NCc3ccccc3)nc(NCCO)nc21 [olomoucine] | G1/S or G2/M
2 | O=c1c(O)c(-c2ccc(O)c(O)c2)oc2cc(O)cc(O)c12 [quercitin] | G1
